Test results: patent US20260232745A1, “INHIBITION OF METHANE PRODUCTION IN RUMINANTS” (Loam Bio Pty Ltd, priority 2023, published 2026)

Assay: Chemical reaction with bromine water (HOBr), bromoform by GCMS
Conditions: 10 mM substrate, 24 hours at room temperature

Compound	conversion to bromoform
O=C(O)CC(O)(CC(=O)O)C(=O)O [citric acid]	Good conversion
CC1(C)CC(=O)CC(=O)C1 [dimedone]	Good conversion
COC(=O)C(C)=O [methyl pyruvate]	Good conversion
